Data on one substance can be found in paper PMC8983240.

The chains behind the UniProt entries cited, without tags or fusion partners.
UniProt P17302: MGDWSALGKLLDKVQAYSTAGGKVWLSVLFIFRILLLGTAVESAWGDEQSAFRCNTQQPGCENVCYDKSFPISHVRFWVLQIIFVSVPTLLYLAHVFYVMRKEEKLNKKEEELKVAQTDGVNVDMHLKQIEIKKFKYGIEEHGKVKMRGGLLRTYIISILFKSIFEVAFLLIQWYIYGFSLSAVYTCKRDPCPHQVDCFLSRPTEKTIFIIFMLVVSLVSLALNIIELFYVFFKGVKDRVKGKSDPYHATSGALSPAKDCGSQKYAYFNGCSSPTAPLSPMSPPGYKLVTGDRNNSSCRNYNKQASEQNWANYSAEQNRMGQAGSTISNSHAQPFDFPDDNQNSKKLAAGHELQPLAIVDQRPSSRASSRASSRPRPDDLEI
UniProt Q93008: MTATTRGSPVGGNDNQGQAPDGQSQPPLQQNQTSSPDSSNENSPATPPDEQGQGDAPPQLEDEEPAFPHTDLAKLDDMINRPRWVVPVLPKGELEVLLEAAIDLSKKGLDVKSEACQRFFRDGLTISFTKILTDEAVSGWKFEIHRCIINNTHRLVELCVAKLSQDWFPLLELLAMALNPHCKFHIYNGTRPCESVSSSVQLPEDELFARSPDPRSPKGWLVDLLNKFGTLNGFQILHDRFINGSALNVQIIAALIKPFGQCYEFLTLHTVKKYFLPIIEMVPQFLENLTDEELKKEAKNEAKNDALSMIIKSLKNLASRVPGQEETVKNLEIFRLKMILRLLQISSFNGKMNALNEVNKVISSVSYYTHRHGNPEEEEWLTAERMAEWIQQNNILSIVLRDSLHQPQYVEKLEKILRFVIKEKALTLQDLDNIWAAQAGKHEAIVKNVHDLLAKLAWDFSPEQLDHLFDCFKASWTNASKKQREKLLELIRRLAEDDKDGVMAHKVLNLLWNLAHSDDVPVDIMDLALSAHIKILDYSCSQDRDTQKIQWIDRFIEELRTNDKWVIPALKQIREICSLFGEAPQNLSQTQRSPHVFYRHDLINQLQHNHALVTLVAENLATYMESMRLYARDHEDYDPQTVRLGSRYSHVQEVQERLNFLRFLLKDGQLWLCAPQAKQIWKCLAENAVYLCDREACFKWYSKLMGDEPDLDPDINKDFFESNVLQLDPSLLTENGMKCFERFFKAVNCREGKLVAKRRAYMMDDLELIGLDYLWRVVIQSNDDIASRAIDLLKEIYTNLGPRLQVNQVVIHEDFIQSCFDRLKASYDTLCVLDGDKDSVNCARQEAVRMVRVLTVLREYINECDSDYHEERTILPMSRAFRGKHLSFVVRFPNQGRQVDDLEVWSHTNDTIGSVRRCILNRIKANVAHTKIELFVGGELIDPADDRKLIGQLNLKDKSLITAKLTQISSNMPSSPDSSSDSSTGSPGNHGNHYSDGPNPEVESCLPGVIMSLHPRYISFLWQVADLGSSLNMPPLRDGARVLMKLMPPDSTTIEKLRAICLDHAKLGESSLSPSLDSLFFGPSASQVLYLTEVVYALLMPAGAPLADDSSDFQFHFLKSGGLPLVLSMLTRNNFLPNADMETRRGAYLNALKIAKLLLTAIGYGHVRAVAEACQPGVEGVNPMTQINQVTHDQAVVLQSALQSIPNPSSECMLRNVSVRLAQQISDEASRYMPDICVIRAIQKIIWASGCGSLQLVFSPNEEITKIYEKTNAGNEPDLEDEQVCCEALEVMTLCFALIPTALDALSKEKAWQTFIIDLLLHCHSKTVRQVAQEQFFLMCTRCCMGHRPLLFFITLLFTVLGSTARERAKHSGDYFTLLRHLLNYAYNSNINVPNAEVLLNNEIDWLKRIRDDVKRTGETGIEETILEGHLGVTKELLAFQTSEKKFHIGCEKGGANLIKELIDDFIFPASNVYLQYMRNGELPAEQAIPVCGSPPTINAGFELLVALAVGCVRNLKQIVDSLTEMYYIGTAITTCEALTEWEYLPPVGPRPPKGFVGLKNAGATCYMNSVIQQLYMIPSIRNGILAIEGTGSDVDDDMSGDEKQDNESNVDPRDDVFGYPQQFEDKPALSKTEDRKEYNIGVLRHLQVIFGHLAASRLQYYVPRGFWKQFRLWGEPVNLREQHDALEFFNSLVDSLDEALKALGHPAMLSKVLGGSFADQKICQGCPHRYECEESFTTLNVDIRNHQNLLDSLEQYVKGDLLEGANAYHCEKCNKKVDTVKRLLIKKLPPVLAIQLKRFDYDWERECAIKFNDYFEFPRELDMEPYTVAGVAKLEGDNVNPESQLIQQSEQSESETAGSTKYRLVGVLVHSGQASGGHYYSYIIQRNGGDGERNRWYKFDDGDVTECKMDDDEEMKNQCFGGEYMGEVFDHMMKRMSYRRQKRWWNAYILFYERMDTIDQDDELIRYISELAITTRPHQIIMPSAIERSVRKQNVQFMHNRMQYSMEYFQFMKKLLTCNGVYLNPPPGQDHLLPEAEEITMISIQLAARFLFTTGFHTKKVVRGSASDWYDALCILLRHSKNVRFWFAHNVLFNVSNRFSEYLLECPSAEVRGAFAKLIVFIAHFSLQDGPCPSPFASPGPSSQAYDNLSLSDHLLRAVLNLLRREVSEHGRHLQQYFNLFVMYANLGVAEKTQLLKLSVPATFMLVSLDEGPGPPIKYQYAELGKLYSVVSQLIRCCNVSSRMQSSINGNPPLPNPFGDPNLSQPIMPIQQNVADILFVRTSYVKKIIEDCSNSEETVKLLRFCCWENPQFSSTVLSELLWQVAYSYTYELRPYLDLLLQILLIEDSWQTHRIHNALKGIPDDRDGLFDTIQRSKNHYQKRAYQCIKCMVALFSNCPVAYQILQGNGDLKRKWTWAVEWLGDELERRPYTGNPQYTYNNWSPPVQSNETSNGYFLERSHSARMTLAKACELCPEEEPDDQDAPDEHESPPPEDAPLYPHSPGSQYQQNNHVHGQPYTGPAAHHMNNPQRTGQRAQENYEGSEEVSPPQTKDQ

These are yes or no findings as the source states them, for the method shown. In cells and extracts the contact can be indirect. These calls come from enrichment with a bait or labelling near it, and not all partners need be listed.

This test deals with Connexin 43 with a 3x Flag tag (Cx43-Flag) (UniProt P17302). In words: affinity purification with mass spectrometry; extracts of ligament fibroblasts stably expressing Cx43-Flag precleared with IgG and protein A-G beads, anti-Flag antibody overnight at 4°C, eluted with Flag peptides, SDS-PAGE, bands excised, trypsin, LC-MS.

Take “Ubiquitin-specific protease 9 X-chromosome (USP9X) (from UniProt Q93008 1-2554) (enzyme)”: the binding entry is “binds”.
